# Test results from PubChem BioAssay AID2685 (National Center for Advancing Translational Sciences (NCATS), 2010).
# The campaign covered roughly 320,000 compounds. About 2,100 (0.66%) were called active. Inconclusive means that the source gave no clear call. Such entries were picked first, then a sample of the others. Calls come from the whole dose curve; as a rule, active = well fitted inhibition curve with a large enough effect in the signal ratio, with a control signal flat (not every such curve was filed as active); inconclusive = small, poorly fitted or top-dose-only effect, or effect the other way, or a change in a side signal; inactive = flat fitted curve, though single readings scatter; the % refers to the signal ratio. Potencies of inconclusive entries are doubtful fits and often do not repeat.
# Assay: qHTS Assay for Lipid Storage Modulators in Drosophila S3 Cells
# Settings: BODIPY lipid droplet fluorescence, 18-24 h, cells fed with added oleic acid; lipid storage change, negative = inhibition: at 46.1 µM (top of the series) unless noted
# Summary of the method: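 Drosophila S3 cells loaded with oleic acid (400 uM, as added) and compounds at several concentrations; lipid droplets imaged by 488-nm laser-scanning cytometry, 500–530 nm intensity and object ratio to cell channel. Percent activity normalized to 20 uM Triacsin C.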
# % is set by controls: 0 for no effect and ±100 for the full control effect; potency is the fitted concentration of half-maximal effect.
SMILES,Potency,"lipid storage change, negative = inhibition"
Cc1nn(Cc2c(F)c(F)c(F)c(F)c2F)c(C)c1NC(=O)c1c([N+](=O)[O-])cnn1C,"inconclusive: 2.59 µM [activator, partial curve, poor fit]",
CCCCCC(=O)Nc1ccc2oc(-c3ccncc3)nc2c1,,inconclusive: 19.4%
COc1cc(NC(=O)C2CCN(S(=O)(=O)c3cccc4nonc34)CC2)cc(OC)c1,,inconclusive: -5.7%
O=C(CSc1nnc(-c2ccncc2)n1CC1CCCO1)NCc1ccccc1 (stereo not given),,inconclusive: -21.3%
Cc1cc(N)n(-c2ccc(Cl)cc2)n1,,inconclusive: -3.01%
COc1ccc(NC(=S)Nc2cccc3cnccc23)cc1,"inconclusive: 0.082 µM [activator, full curve, poor fit]",
CCCCn1c(NCCC)nc2c1c(=O)[nH]c(=O)n2C,,inconclusive: -18.8%
CCSc1nnc(-c2ccc(S(=O)(=O)NCc3cccs3)cc2)o1,,inconclusive: 12.8%
CC(=O)C(Sc1nc(N(C)C)nc(N(C)C)n1)C(=O)Nc1ccccc1 (stereo not given),,inconclusive: -49.2% [cytotoxic] [at 0.00295 µM]
COc1ccc(CSCC(=O)Nc2ccccc2SC)cc1,,inconclusive: -23%
Cc1cccc(S(=O)(=O)NCC2CCCO2)c1 (stereo not given),,inconclusive: 14.5%
O=c1[nH]c(CSc2nnnn2-c2ccc(Cl)cc2)nc2ccccc12,,inconclusive: 91.3%
NC(=O)c1cc([N+](=O)[O-])ccc1NCc1ccc(O)cc1,,inconclusive: -50.9%
COc1ccccc1NC(=S)NCc1ccc2c(c1)OCO2,,inconclusive: -0.466%
CC(=O)O/N=C/c1c(Cl)n(C)c2ccccc12,"inconclusive: 0.651 µM [falling, single point]",
CCc1ccc(S(=O)(=O)NC(=S)Nc2ccccc2)cc1,,inconclusive: 0.693%
COC(=O)c1ccc(CSc2nnnn2-c2ccccc2)o1,"inconclusive: 13 µM [rising, partial curve, poor fit]",
COc1ccc(/C=C(/NC(=O)c2ccccc2OC)C(=O)Nc2ccc(C(=O)O)cc2)cc1,,inconclusive: -19.1%
Fc1ccc(C2NC(=S)NC3=C2N2CCC3CC2)cc1 (stereo not given),"inconclusive: 6.51 µM [falling, single point]",
COc1cc(OC)cc(C(=O)NCC(=O)Nc2ccc(-c3ccccc3)cc2)c1,"inconclusive: 11.6 µM [falling, single point]",
C=CCn1c(=NC(=O)CC)n(C)c2ccccc21,,inconclusive: 1.49%
Cc1csc(SCC(=O)NC2CCC(C)CC2)n1 (stereo not given),,inconclusive: 24.8%
Cc1cccc(NC(=O)C2CCCN(C(=O)Nc3ccc(F)cc3)C2)c1C (stereo not given),,inconclusive: 44.9%
CCCN(C(=O)CCOc1ccc(C(C)(C)C)cc1)c1c(N)n(Cc2ccccc2)c(=O)[nH]c1=O,"inconclusive: 20.6 µM [cytotoxic, single point]",
CC(C)CCC(=O)N1CCC(N2CCC(C(=O)NCc3ccccn3)CC2)CC1,,inconclusive: 6.67%

SMILES,Potency,"lipid storage change, negative = inhibition"
O=C(NCC(c1cccnc1)N1CCOCC1)Nc1ccccc1 (stereo not given),,inconclusive: 14.5%
COc1ccc(C)cc1Nc1n[n+](-c2ccccc2)c(-c2cc(OC)c(OC)cc2Br)s1,"inconclusive: 23.1 µM [falling, single point]",
NC(=O)Cn1nnc(-c2ccc(CN3CCCCC3)cc2)n1,,inconclusive: -25%
O=S(=O)(NC1c2cccc3cccc(c23)C1N1CCNCC1)c1ccccc1 (stereo not given),,inconclusive: 7.01%
CCN(CC)S(=O)(=O)c1ccc(C(=O)C(C#N)c2ccccn2)cc1 (stereo not given),,inconclusive: 39.9%
CCN(CC(=O)Nc1ccc(NC(C)=O)cc1)C(=O)c1ccc(NC2CC2)c([N+](=O)[O-])c1,"inconclusive: 0.164 µM [activator, full curve, poor fit]",
O=C(CCCN1C(=O)/C(=C/c2cccs2)SC1=S)NNC(=O)c1ccccc1O,active: 6.51 µM,
COc1ccccc1C(=O)NNC(=O)c1nn(Cc2ccccc2)c(=O)c2ccccc12,,inconclusive: 12.1%
CCCC(C(=O)Nc1cc(S(=O)(=O)N2CCOCC2)ccc1OC)c1ccccc1 (stereo not given),,inconclusive: -5.36%
O=c1ccn(-c2cccc(C(F)(F)F)c2)nc1-c1ccn(-c2cccc(Cl)c2)n1,,inconclusive: -26%
COC(=O)c1ccc(CNC(=O)c2coc3ccccc3c2=O)cc1,,inconclusive: 29.8%
COCCCNC(=O)c1ccc2c(c1)CCN2S(C)(=O)=O,"inconclusive: 6.51 µM [falling, single point]",
COc1ccc(NC(=O)CSc2n[nH]c(-c3ccccc3)n2)cc1S(N)(=O)=O,"inconclusive: 2.31 µM [falling, partial curve]",
COC(=O)CCN(C(=O)c1ccc(N2CCCCC2)c([N+](=O)[O-])c1)c1ccccn1,,inconclusive: -41.7%
COc1cccc(-c2nc(CS(=O)(=O)CC(=O)NCc3ccc(Cl)cc3)c(C)o2)c1,"inconclusive: 29.1 µM [falling, single point]",
CC(NC(=O)c1cccc(S(=O)(=O)N(C)C)c1)C1CC2CCC1C2 (stereo not given),"inconclusive: 0.0058 µM [falling, full curve, poor fit]",
Cc1cc(C)nc(NS(=O)(=O)c2ccc(NC(=S)NC(=O)c3ccco3)cc2)n1,"inconclusive: 32.6 µM [falling, single point]",
CCc1ccccc1NC(=S)N(CCOC)C(C)c1ccco1 (stereo not given),,inconclusive: 17.3%
COc1ccc(-c2cc(C(=O)Nc3cccnc3)no2)cc1OC,,inconclusive: -137%
O=S1(=O)N=C(N(CCO)/N=C/C=C/c2ccccc2)c2ccccc21,,inconclusive: 0.873%
CC1(C(=O)O)CCC(C(=O)Nc2cccc(F)c2)C1(C)C (stereo not given),,inconclusive: -2.98%
CC(O)CSc1nc2c(c(=O)[nH]c(=O)n2C)n1CC(O)COc1ccccc1 (stereo not given),,inconclusive: -2.29%
CN(C)CC#Cc1cncc(C(=O)NNC(=O)Nc2ccc(Cl)cc2)c1,,inconclusive: 5.01%
CC(=O)N1CCN(Cc2nc3cc(Cl)ccc3c(=O)[nH]2)CC1,"inconclusive: 3.26 µM [activator, single point]",
Cc1ccc(Cl)cc1NC(=O)CCS(=O)(=O)c1cccc2nonc12,,inconclusive: -40%

SMILES,Potency,"lipid storage change, negative = inhibition"
CC1CCCCC12NC(=O)N(CC(=O)OCc1cccc(F)c1)C2=O (stereo not given),,inconclusive: 22.2%
O=C(CCC(=O)N1CCOCC1)NCCc1ccc(F)cc1,,inconclusive: 40.7%
CC(=O)c1ccc(NC(=O)C(C)Nc2ccc(Cl)cc2)cc1 (stereo not given),"inconclusive: 0.0052 µM [activator, full curve, poor fit]",
COc1ccc(C(=O)OCC(=O)NC2CCCC2)c(OC)c1,"inconclusive: 6.51 µM [activator, single point]",
CC(C)(C)N1CCC1CN (stereo not given),"inconclusive: 0.206 µM [falling, full curve, poor fit]",
COc1ccc(C(=O)O)cc1NCc1cccnc1,"inconclusive: 0.13 µM [activator, full curve, poor fit]",
CCCCn1c(N)c(N(CC(C)C)C(=O)CC(NC(=O)c2ccccc2)c2ccccc2)c(=O)[nH]c1=O (stereo not given),,inconclusive
COc1ccccc1N1CCN(/N=C/c2ccc(O)c(O)c2)CC1,"inconclusive: 20.6 µM [falling, single point]",
Clc1cccc(Cl)c1CO/N=C/c1c(-c2ccccc2)nc2n1CCS2,,inconclusive: -27.5%
CC(=O)c1ccccc1Oc1cc(NN2CCCCC2)c([N+](=O)[O-])cc1[N+](=O)[O-],"inconclusive: 0.58 µM [activator, single point]",
O=C(CN1C(=O)/C(=C/c2cccc(Br)c2)SC1=S)NC1=NCCS1,,inconclusive: 8.31%
O=C(N/N=C/c1ccc2c(c1)OCO2)c1ccc(NC(=O)c2ccccc2Cl)cc1,,inconclusive: -71.9%
O=C(O/N=C1\CCCc2ccccc21)c1cccs1,"inconclusive: 0.517 µM [falling, full curve, poor fit]",
CC(C)NC(=O)C(=O)Nc1cc2c3c(c1)CCC(=O)N3CCC2,active: 11.6 µM,
C=CCn1c(COc2ccccc2F)nnc1SCC(=O)c1c[nH]c2ccccc12,"inconclusive: 20.6 µM [falling, single point]",
O=C(O)CC(C(=O)Nc1ccc(Cl)c(Cl)c1)C1CCCO1 (stereo not given),active: 20.6 µM,
Cc1ccc(/C=N/n2c(-c3ccncc3)n[nH]c2=S)cc1,"inconclusive: 2.31 µM [rising, full curve]",
CCn1c(CC(=O)Nc2cccc(Cl)c2Cl)nnc1SCCOc1ccc(OC)cc1,,inconclusive: -11.7%
CCC(C)N(C(=O)CSc1nnc2ccccn12)C1CCS(=O)(=O)C1 (stereo not given),,inconclusive
Cc1cc(C)n(-c2ccc(C(=O)Nc3ccc(C)c(S(=O)(=O)N4CCOCC4)c3)cc2)n1,,inconclusive: -18.7%
CC(C)C(CO)NC(=O)CC(=O)NC(CO)C(C)C (stereo not given),"inconclusive: 14.6 µM [falling, partial curve, poor fit]",
Cc1cc(C(=O)N2CCCC(Nc3ccccc3)C2)c2ccc(F)cc2n1 (stereo not given),"inconclusive: 6.51 µM [falling, single point]",
O=C(O)c1ccc(/C=C/c2nc3sc4c(c3c(=O)[nH]2)CCC4)cc1,,inconclusive: -58.1%
CCN1CCN(CCCNC(=O)CS(=O)(=O)Cc2nc(-c3cccc(OC)c3)oc2C)CC1,,inconclusive: -17.8%
CCOc1ccccc1NC(=O)CN(c1nccs1)S(=O)(=O)c1ccc(N)cc1,,inconclusive: 20.3%

# Six entries out of the list, ordered by SMILES length, largest number first.
SMILES,Potency,"lipid storage change, negative = inhibition"
O=C(CCCN1C(=O)/C(=C/c2cccs2)SC1=S)NNC(=O)c1ccccc1O,active: 6.51 µM,
O=S1(=O)N=C(N(CCO)/N=C/C=C/c2ccccc2)c2ccccc21,,inconclusive: 0.873%
Cc1ccc(Cl)cc1NC(=O)CCS(=O)(=O)c1cccc2nonc12,,inconclusive: -40%
O=C(O)CC(C(=O)Nc1ccc(Cl)c(Cl)c1)C1CCCO1 (stereo not given),active: 20.6 µM,
COc1ccc(-c2cc(C(=O)Nc3cccnc3)no2)cc1OC,,inconclusive: -137%
CC(C)C(CO)NC(=O)CC(=O)NC(CO)C(C)C (stereo not given),"inconclusive: 14.6 µM [falling, partial curve, poor fit]",
